Values joined by “and” are separate entries in the source; they are usually repeats but may differ in a detail not shown here. Equal entries are not always repeated. Structures can show the parent of a compound that is named as a salt. Some of the results follow. Single values are uncertain here, since repeats match poorly.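 HEK293T cells were given each compound shortly before transfection with a reporter in which red mCherry is followed by the SARS-CoV-2 frameshift element and then GFP in the −1 frame, so GFP appears only after frameshifting.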
What was measured:
[1] = tested on: SARS-CoV-2 -1 PRF reporter mCherry-FSE-GFP(-1); assay: mCherry (red) intensity as percent of control; higher = higher upstream reporter expression; settings: 10 µM; 24 h; HEK293T
[2] = tested on: SARS-CoV-2 -1 PRF reporter mCherry-FSE-GFP(-1); assay: percent effect, decrease of GFP/mCherry ratio (-1 PRF reporter) relative to controls; higher = stronger frameshift inhibition; settings: 10 µM; 24 h; HEK293T

Compound	mCherry [1]	percent effect [2]
CC1=NS(=O)(=O)c2cc(Cl)ccc2N1	123%	2.04%
O=C(CCCCC(=O)Nc1c(I)cc(I)c(C(=O)O)c1I)Nc1c(I)cc(I)c(C(=O)O)c1I [adipiodone]	96.4%	-6.21%
N=C(N)N/N=C/c1c(Cl)cccc1Cl [guanabenz]	71.2%	-6.78%
CC(C)(C)NCC(O)CSc1nc(-c2ccc(C(N)=O)s2)cs1 (configuration not stated) [arotinolol]	112%	-0.0991%
C=CCCCCCCCCC(=O)O	98.2%	-1.99%
CC(=O)Oc1ccccc1C(=O)O [Acetylsalicylic Acid]	59.3%	-1.12%
CC(CC(=O)c1ccc(-c2ccccc2)cc1)C(=O)O (configuration not stated) [metbufen]	95.8%	-3.52%
Nc1ccc(S(=O)(=O)Nc2ccccc2)cc1 [sulfabenz]	128%	-5.33%
CNC(=O)[C@H](Cc1c[nH]c2ccccc12)NC(=O)[C@@H](CC(=O)NO)CC(C)C [ilomastat]	64.2%	-4.66%
Cc1cccc(C)c1NC(=O)CN1CCCCCC1 [pincainide]	97.7%	-3.18%
Cc1cccc(CN2CCN(C(c3ccccc3)c3ccc(Cl)cc3)CC2)c1 (configuration not stated) [meclozine]	98.8%	-6.23%
CCC[C@@H]1C[C@@H](C(=O)N[C@@H]([C@H]2O[C@H](SC)[C@H](O)[C@@H](O)[C@H]2O)[C@H](C)Cl)N(C)C1 [Clindamycin·HCl]	219%	4.51%
NC(N)=Nc1nc(CSCC/C(N)=N/S(N)(=O)=O)cs1 [famotidine]	113% and 110%	-2.91% and -5.01%
N#Cc1ccc2c(c1)N(CCCN1CCC(O)CC1)c1ccccc1S2 [periciazine]	88.7%	-1.12%
Cc1ccsc1/C=C/C1=NCCCN1C	141%	0.517%
CO[C@@H]1[C@@H](OC)[C@H](C)[C@@](O)(CC(=O)O)O[C@H]1[C@H](C)[C@H]1O[C@@]2(CC[C@@](C)([C@H]3CC[C@@](C)([C@@H]4O[C@@H]([C@H]5O[C@](C)(O)[C@H](C)C[C@@H]5C)C[C@@H]4O[C@@H]4C[C@H](OC)[C@@H](OC)[C@H](C)O4)O3)O2)C[C@H](O)[C@H]1C [maduramicin]	1440%	-27.5%

Arranged by length of the SMILES (ascending): some entries from above.
Compound	mCherry [1]	percent effect [2]
N=C(N)N/N=C/c1c(Cl)cccc1Cl [guanabenz]	71.2%	-6.78%
CC1=NS(=O)(=O)c2cc(Cl)ccc2N1	123%	2.04%
CC(CC(=O)c1ccc(-c2ccccc2)cc1)C(=O)O (configuration not stated) [metbufen]	95.8%	-3.52%
CCC[C@@H]1C[C@@H](C(=O)N[C@@H]([C@H]2O[C@H](SC)[C@H](O)[C@@H](O)[C@H]2O)[C@H](C)Cl)N(C)C1 [Clindamycin·HCl]	219%	4.51%
